# Source: PubChem BioAssay AID504467 (National Center for Advancing Translational Sciences (NCATS), 2011)
# The campaign covered roughly 330,000 compounds. About 7,700 (2.3%) were called active. Inconclusive means that the source gave no clear call. Such entries were picked first, then a sample of the others. Calls come from the whole dose curve; as a rule, active = well fitted inhibition curve with a large enough effect; inconclusive = small, poorly fitted or top-dose-only effect, or effect the other way; inactive = flat fitted curve, though single readings scatter. A potency beside an inconclusive call is a rough fit, not a confirmed value.
# Assay: qHTS screen for small molecules that inhibit ELG1-dependent DNA repair in human embryonic kidney (HEK293T) cells expressing luciferase-tagged ELG1; note: nearly all actives have a fitted effect of over 55% in size
# Details: HEK293T ELG1-luciferase reporter, luminescence, 16 h, DNA damage induced by 5-fluorouridine; activity change, negative = inhibition: at 46.1 µM (top of the series)
# Outline: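 DMSO vehicle served as the neutral condition. Each well held 2,000 cells given 5-fluorouridine plus compound; after 16 hr at 37 °C/5% CO2, ONE-Glo was added and luciferase measured 30 min later.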
# % is set by controls: 0 for no effect and ±100 for the full control effect; potency is the fitted concentration of half-maximal effect.
SMILES,Potency,"activity change, negative = inhibition"
C/C(=N/N=C(/C)c1cccs1)c1cccs1,"inconclusive: 20.6 µM [activator, partial curve]",
CC(=O)c1c(C)[nH]c(C(=O)COC(=O)c2ccc(Cl)nc2)c1C,,inactive: 29.1%
CCC(C)(C)C1CCc2c(sc(NC(=O)c3cccs3)c2C(N)=O)C1 (centres undefined),"inconclusive: 11.6 µM [activator, partial curve]",
O=C(CC1CCCCC1)NCc1ccccc1Cl,"inconclusive: 16.4 µM [activator, partial curve]",
Cc1cc(C)c(C)c(OCC(=O)N2CCN(c3ccccn3)CC2)c1,"inconclusive: 25.9 µM [inhibitor, single point]",
COc1ccc(CCNC(=O)c2sc3ccccc3c2Cl)cc1OC,"inconclusive: 29.1 µM [inhibitor, single point]",
COc1ccc(C(=O)COC(=O)CCN=C2NS(=O)(=O)c3ccccc32)c(OC)c1,,inactive: -1.42%
CCCN(C(=O)CSc1ccccc1C(=O)O)C1CCS(=O)(=O)C1 (centres undefined),"inconclusive: 25.9 µM [activator, partial curve, poor fit]",
O=C(CSc1nnc2ccccn12)NCc1cccs1,"inconclusive: 29.1 µM [activator, single point]",
CCOc1ccc(NS(=O)(=O)c2ccc(C(=O)N3CC(C)OC(C)C3)cc2)cc1 (centres undefined),"inconclusive: 20.6 µM [activator, partial curve, poor fit]",
COc1ccc(C(=O)NCCn2ccc3ccccc32)c(OC)c1,"inconclusive: 10.3 µM [activator, partial curve]",
O=C(NCc1ccccc1CN1CCCCC1)c1ccccc1N1CCCC1=O,,inactive: 0.674%
COc1cc(/C=N/n2nnnc2N)cc(OC)c1OC,"inconclusive: 18.3 µM [activator, partial curve, poor fit]",
Cn1nc(C(F)(F)F)cc1-c1ccc(S(N)(=O)=O)s1,"inconclusive: 6.51 µM [activator, partial curve]",
COc1ccc(CN(C(=O)c2cc(=O)c3ccccc3o2)C2CCS(=O)(=O)C2)cc1 (centres undefined),"inconclusive: 0.259 µM [activator, full curve, poor fit]",
O=C1C(=O)N(C/C=C/c2ccccc2)c2ccccc21,"inconclusive: 29.1 µM [inhibitor, single point]",
COc1ccc(C)c(Cn2c(-c3nonc3N)nc3ccccc32)c1,"inconclusive: 5.17 µM [inhibitor, partial curve, poor fit]",
CCc1cc2c(N3CCCCC3)ncnc2s1,"inconclusive: 7.31 µM [inhibitor, partial curve]",
Cn1cc(C(=O)c2cccc(Cl)c2)cc1/C=N\O,,inactive: -7.75%
CCOC(=O)c1c(C)[nH]c(C(=O)OCC(=O)N(CC(C)C)c2c(N)n(Cc3ccccc3)c(=O)[nH]c2=O)c1C,"inconclusive: 35.5 µM [inhibitor, single point]",
CC(C)CN(C(=O)CSc1nc2ccccc2c(=O)n1C)C1CCS(=O)(=O)C1 (centres undefined),,inactive: 0.337%
COc1ccc(C2NC(=S)NC(C)=C2C(=O)Nc2ccccn2)cc1 (centres undefined),"inconclusive: 23.1 µM [activator, single point]",

SMILES,Potency,"activity change, negative = inhibition"
Cc1cc(C)nc(NC(=O)c2ccc3c(c2)OCO3)c1,"inconclusive: 14.6 µM [activator, partial curve]",
CSCC[C@H](NC(=O)CC(C)(C)C)c1nc2ccccc2[nH]1,,inactive: -6.61%
CC1CCCCN1C(=O)CN1C(=O)NC2(CCCCC2C)C1=O (centres undefined),"inconclusive: 16.4 µM [activator, partial curve, poor fit]",
COc1ccc(S(=O)(=O)N2CCOCC2)cc1NC(=O)CN(C)CC(=O)Nc1cccc(F)c1,"inconclusive: 29.1 µM [inhibitor, single point]",
Cc1ccc(N(C)S(=O)(=O)c2c[nH]c3ccc([N+](=O)[O-])cc23)cc1,,inactive: -2.34%
CC(C)CC(=O)Nc1ccc2oc(-c3cccnc3)nc2c1,"inconclusive: 10.3 µM [activator, partial curve]",
COc1ccc(-n2c(COc3ccc(C)cc3)nnc2SCC(=O)O)cc1,"inconclusive: 29.1 µM [activator, single point]",
CC(=O)c1ccccc1NC(=O)COC(=O)/C=C/c1cccs1,,inactive: 9.62%
O=C1C(Cl)=C(Nc2ccccc2O)C(=O)N1c1ccccc1,"inconclusive: 0.731 µM [activator, single point]",
CCc1ccc(C(=O)CSc2n[nH]c(C)n2)cc1,,inactive: 2.13%
CC(C)c1ccc(C2(C)NC(=O)N(CC(=O)N3CCN(C(=O)c4cccs4)CC3)C2=O)cc1 (centres undefined),"inconclusive: 23.1 µM [inhibitor, single point]",
COC(=O)Nc1ccc(S(=O)(=O)NC2CCCCC2)cc1,,inactive: 1.18%
COc1ccccc1CN(C)C(=O)c1sccc1-c1ccccc1,,inactive: 2.81%
CCOC(=O)c1ccccc1NC(=O)Cn1cnc2c(cnn2-c2ccccc2)c1=O,,inactive: 22.7%
O=C(CNC(=O)c1ccc([N+](=O)[O-])cc1)c1ccccc1,"inconclusive: 23.1 µM [activator, partial curve]",
CCOc1cc(N2CCOCC2)c(OCC)cc1NC(=O)COC(=O)[C@H](Cc1c[nH]c2ccccc12)NC(C)=O,"inconclusive: 29.1 µM [inhibitor, partial curve, poor fit]",
Cc1cccc(Cc2cnc(NC(=O)C3=NCCN3)s2)c1,"inconclusive: 18.3 µM [inhibitor, single point]",
COc1ccccc1/C=N\Nc1ccccc1[N+](=O)[O-],"inconclusive: 7.3 µM [activator, partial curve]",
COC(=O)Cc1c(C)c2ccc(OCC(=O)NC3CCS(=O)(=O)C3)cc2oc1=O (centres undefined),,inactive: 13.4%
O=S(=O)(NNc1ncc(C(F)(F)F)cc1Cl)c1ccccc1,"inconclusive: 10.3 µM [activator, partial curve, poor fit]",
COc1ccc(Nc2nc(Nc3ccc(OC)cc3)nc(-n3[nH]c(=O)c(C)c3C)n2)cc1,active: 2.31 µM,
CC(=O)c1cn(CC(=O)NCc2ccco2)c2ccccc12,"inconclusive: 6.31 µM [activator, partial curve]",

# Taken from the listing, four compounds:
SMILES,Potency,"activity change, negative = inhibition"
CC(=O)c1ccccc1NC(=O)COC(=O)/C=C/c1cccs1,,inactive: 9.62%
O=C1C(Cl)=C(Nc2ccccc2O)C(=O)N1c1ccccc1,"inconclusive: 0.731 µM [activator, single point]",
CCc1ccc(C(=O)CSc2n[nH]c(C)n2)cc1,,inactive: 2.13%
CC(C)c1ccc(C2(C)NC(=O)N(CC(=O)N3CCN(C(=O)c4cccs4)CC3)C2=O)cc1 (centres undefined),"inconclusive: 23.1 µM [inhibitor, single point]",
